Test results taken from PMC12136792, “ADP ribosylation factor–like GTPase 6–interacting protein 5 (Arl6IP5) is an ER membrane-shaping protein that modulates ER-phagy” (The Journal of Biological Chemistry, 2025).
Results are given in words; binding and its absence hold for the method and conditions named. Binding seen in cells or lysates may run through a third protein. Some binding calls cover weakened binding; strength is not graded here. Tags and fused reporters may be left off the sequences shown.

Molecular target: HA-tagged Arl6IP5 (ADP ribosylation factor-like GTPase 6-interacting protein 5) (human) (UniProt O75915)
Experiment: cross-linking; membrane fraction of COS-7 cells transfected with HA-Arl6IP5, in HKM buffer (25 mM Hepes-KOH pH 7.4, 150 mM potassium acetate, 2.5 mM magnesium acetate), various concentrations of BS3, 30 min, room temperature; SDS-PAGE and anti-HA immunoblot

- binding: binds
B1: HA-tagged Arl6IP5 (ADP ribosylation factor-like GTPase 6-interacting protein 5) (natural protein, human, UniProt O75915 1-188, looked up)
chain: MDVNIAPLRAWDDFFPGSDRFARPDFRDISKWNNRVVSNLLYYQTNYLVVAAMMISIVGFLSPFNMILGGIVVVLVFTGFVWAAHNKDVLRRMKKRYPTTFVMVVMLASYFLISMFGGVMVFVFGITFPLLLMFIHASLRLRNLKNKLENKMEGIGLKRTPMGIVLDALEQQEEGINRLTDYISKVKE
notes: Arl6IP5, human, cDNA in pCMV vector with N-terminal HA tag; ER membrane protein; tested in the membrane fraction, not solubilised; also called HA-Arl6IP5; PRAF3; source: COS-7, transfected (PEI), crude membrane fraction; not shown: HA, N-terminal, kept
